The text below walks through data of the supplement of paper PMC6411743.

By UniProt entry, the sequences of proteins in these tests, tags left out. Where a name states a change or a piece, a line headed by the entry shows the natural chain unless it says otherwise.
UniProt Q9H9B1: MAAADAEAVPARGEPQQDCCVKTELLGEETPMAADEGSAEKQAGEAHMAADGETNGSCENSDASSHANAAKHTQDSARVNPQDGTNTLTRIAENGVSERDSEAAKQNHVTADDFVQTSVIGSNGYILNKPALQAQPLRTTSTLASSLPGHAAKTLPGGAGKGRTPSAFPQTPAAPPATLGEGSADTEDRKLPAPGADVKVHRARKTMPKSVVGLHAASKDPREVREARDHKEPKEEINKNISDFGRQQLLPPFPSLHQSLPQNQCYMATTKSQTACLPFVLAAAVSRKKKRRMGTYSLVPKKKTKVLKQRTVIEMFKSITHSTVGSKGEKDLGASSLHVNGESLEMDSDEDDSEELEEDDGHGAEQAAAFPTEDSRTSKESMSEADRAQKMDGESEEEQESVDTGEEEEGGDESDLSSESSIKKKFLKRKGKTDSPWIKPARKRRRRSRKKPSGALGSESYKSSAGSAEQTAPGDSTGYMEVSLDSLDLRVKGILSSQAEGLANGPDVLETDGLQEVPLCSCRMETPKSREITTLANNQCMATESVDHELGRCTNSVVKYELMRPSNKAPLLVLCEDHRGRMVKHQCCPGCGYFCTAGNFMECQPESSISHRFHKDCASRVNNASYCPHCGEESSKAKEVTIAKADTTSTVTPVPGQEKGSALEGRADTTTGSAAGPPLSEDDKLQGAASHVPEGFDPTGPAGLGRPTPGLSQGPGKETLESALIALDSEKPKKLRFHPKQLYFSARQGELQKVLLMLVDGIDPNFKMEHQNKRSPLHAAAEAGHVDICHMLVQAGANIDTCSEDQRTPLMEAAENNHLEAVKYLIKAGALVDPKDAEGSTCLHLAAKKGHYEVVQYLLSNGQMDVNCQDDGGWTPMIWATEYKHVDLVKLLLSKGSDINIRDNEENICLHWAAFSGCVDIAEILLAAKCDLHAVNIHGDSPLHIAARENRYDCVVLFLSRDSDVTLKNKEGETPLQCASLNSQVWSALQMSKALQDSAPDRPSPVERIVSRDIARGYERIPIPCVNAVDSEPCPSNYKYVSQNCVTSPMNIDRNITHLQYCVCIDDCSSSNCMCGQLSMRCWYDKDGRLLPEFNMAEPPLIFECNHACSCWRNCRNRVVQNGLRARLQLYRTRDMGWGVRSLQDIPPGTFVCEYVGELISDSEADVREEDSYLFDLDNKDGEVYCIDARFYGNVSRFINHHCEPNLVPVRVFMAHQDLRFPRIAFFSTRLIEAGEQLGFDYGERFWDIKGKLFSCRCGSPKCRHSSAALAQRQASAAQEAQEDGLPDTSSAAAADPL
UniProt Q9H2V7: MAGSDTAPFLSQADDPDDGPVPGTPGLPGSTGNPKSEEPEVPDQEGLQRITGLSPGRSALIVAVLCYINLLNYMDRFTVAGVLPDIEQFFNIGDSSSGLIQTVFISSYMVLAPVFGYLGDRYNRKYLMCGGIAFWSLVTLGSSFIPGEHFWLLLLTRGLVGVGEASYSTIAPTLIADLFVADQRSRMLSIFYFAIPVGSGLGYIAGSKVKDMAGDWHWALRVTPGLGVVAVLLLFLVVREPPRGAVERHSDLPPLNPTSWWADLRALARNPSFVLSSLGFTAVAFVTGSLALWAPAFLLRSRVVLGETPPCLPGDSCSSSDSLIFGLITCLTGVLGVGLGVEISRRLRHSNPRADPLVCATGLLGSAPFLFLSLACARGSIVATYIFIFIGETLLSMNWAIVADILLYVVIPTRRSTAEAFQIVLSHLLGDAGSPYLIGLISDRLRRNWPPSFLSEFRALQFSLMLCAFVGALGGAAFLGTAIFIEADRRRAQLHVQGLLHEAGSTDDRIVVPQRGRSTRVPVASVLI
UniProt Q9HA38: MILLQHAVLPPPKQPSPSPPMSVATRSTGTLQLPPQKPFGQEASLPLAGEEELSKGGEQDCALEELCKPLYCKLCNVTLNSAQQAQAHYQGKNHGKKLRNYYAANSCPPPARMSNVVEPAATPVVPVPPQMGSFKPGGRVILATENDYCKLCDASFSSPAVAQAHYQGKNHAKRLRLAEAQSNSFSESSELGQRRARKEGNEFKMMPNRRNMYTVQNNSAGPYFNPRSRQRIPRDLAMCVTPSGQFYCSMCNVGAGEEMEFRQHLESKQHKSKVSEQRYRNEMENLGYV
UniProt Q9H2Y7: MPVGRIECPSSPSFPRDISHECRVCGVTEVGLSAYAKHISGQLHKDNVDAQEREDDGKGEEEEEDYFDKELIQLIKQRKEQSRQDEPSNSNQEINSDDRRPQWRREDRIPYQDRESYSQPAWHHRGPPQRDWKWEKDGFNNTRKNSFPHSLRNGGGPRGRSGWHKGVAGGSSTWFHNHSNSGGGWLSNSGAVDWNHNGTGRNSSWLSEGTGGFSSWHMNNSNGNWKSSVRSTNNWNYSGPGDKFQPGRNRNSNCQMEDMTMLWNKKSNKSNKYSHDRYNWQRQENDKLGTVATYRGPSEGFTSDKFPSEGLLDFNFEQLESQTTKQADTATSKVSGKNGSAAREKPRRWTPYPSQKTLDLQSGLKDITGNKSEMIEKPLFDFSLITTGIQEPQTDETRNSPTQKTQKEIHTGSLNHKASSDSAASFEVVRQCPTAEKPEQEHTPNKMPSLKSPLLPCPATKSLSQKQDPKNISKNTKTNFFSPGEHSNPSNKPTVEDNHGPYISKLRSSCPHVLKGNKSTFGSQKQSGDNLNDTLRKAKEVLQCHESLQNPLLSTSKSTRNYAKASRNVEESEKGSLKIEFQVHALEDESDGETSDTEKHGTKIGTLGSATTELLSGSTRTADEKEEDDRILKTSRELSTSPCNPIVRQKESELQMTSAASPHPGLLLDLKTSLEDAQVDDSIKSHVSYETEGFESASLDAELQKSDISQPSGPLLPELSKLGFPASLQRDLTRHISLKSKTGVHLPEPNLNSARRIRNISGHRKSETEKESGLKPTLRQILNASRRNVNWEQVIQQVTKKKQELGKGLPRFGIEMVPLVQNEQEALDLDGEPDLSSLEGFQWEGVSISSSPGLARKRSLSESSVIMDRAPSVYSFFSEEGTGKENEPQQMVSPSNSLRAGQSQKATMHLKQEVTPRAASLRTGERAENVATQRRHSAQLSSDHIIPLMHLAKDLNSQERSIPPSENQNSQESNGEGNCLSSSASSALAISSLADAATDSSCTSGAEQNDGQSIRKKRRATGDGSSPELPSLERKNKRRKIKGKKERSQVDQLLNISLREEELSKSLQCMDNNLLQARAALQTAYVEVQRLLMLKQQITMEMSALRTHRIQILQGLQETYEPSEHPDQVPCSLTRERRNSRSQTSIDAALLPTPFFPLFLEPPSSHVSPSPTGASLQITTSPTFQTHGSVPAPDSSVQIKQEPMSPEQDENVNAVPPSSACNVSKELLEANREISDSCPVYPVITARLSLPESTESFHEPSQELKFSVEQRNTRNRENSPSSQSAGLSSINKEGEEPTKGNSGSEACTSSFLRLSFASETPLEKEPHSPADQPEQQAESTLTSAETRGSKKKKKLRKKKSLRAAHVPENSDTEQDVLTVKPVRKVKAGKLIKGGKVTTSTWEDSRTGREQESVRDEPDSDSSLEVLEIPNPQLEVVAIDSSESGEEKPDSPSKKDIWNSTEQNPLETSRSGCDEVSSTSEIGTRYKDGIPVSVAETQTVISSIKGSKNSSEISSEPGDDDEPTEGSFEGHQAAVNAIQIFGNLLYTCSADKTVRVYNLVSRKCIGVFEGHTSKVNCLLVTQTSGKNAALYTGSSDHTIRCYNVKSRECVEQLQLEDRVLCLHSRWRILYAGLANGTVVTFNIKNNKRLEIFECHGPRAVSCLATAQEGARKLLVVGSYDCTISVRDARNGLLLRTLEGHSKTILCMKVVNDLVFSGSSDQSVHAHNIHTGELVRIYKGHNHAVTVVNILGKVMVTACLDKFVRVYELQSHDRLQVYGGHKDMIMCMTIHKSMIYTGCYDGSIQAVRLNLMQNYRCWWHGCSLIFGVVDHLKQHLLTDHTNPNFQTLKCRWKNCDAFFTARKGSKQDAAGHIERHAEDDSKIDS
UniProt Q9H2J4: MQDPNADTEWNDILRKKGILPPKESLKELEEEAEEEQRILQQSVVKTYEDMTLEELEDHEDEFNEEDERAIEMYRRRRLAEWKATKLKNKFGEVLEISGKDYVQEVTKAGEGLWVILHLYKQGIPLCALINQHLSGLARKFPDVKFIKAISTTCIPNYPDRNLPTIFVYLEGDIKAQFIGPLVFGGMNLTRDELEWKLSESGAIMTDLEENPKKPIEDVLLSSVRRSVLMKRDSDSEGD
UniProt Q9H082: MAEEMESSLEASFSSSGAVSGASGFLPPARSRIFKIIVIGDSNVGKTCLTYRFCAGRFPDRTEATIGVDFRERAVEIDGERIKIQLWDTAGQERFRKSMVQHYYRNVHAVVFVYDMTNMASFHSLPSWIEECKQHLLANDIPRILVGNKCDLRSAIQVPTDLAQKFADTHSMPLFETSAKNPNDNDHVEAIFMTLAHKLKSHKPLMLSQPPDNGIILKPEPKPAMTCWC
UniProt Q9H0R5: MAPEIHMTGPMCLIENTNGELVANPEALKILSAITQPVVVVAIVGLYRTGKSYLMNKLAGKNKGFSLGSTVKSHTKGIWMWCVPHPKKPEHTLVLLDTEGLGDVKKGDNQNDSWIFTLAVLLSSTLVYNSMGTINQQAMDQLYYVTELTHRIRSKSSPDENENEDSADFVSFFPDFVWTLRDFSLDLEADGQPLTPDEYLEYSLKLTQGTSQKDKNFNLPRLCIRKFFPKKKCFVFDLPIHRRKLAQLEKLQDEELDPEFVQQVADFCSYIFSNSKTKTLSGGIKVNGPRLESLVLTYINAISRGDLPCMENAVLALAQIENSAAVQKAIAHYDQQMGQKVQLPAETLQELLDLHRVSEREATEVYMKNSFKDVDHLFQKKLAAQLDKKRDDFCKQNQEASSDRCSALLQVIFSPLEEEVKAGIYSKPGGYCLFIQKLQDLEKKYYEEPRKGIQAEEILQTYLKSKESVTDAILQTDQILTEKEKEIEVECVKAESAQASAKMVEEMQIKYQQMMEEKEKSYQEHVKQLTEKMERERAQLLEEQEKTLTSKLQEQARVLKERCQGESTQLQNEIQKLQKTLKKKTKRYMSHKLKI
UniProt Q9H6N6: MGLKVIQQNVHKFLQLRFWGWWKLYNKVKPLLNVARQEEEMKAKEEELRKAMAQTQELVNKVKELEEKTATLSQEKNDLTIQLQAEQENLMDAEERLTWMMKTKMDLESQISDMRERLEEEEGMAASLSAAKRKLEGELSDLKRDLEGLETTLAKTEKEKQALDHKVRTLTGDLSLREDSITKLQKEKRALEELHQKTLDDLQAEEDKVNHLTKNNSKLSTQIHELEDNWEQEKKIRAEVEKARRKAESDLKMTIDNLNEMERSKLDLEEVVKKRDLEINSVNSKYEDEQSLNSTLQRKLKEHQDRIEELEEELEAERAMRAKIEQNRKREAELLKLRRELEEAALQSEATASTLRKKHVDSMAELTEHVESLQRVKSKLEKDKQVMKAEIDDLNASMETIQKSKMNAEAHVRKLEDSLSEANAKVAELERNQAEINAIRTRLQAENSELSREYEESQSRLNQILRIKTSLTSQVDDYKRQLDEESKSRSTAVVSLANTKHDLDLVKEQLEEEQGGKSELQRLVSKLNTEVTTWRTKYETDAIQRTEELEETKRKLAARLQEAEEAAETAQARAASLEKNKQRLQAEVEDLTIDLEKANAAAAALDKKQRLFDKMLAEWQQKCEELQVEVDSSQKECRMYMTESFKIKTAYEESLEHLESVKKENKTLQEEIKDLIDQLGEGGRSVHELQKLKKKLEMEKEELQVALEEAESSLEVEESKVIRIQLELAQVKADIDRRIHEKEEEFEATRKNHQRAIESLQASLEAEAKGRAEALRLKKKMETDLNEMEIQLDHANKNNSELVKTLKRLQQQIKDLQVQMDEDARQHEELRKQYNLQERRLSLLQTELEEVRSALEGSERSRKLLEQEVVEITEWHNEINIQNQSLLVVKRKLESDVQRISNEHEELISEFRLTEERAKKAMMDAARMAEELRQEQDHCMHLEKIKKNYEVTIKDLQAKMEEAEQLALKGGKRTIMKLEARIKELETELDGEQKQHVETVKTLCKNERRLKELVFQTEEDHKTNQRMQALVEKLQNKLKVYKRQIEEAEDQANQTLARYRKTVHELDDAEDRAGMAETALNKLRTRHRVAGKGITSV
UniProt Q9HC16: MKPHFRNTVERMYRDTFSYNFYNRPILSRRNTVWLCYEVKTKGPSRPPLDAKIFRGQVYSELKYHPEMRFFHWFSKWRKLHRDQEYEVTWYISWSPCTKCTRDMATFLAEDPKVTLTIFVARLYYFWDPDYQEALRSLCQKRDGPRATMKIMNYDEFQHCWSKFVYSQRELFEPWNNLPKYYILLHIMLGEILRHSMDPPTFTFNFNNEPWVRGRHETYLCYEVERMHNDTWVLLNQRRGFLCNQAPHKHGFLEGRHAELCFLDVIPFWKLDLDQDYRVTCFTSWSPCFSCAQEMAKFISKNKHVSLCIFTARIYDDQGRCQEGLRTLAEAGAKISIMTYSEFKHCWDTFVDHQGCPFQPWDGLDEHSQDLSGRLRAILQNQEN

± gives the standard deviation of the averaged measurements. This is a selection; strong and weak results do not stand in their true shares. Small differences around the control level are noise.

Compound in this assay: Nc1ncnc2c1ncn2[C@@H]1O[C@H](COP(=O)(O)OP(=O)(O)OP(=O)(O)O)[C@@H](O)[C@H]1O [adenosine triphosphate]
In words: NP40-soluble protein abundance relative to vehicle (solubility fold change) (ratio); higher = more soluble protein in presence of ATP. As to conditions: concentration: 0.5mM. Put shortly: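 Jurkat crude lysate (Dounce-homogenised) was treated with eight concentrations from 0.1 to 10 mM for 10 min at room temperature, then 3 min at 37 °C. It was solubilised with 0.8% NP40 and benzonase (60 min, 4 °C) and ultracentrifuged, and the supernatant was TMT-labelled for LC-MS/MS. Intensities were vsn-normalised, and the value is the fold change against the NP40-processed vehicle per replicate, from three independent experiments.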
For UniProt Q9H0W9 and related entries, the NP40-soluble protein abundance amounted to 1.04 ± 0.063.
Next, EHMT1 (UniProt Q9H9B1): 0.9685 ± 0.0016; UniProt Q9H8K7: 1.08 ± 0.15.
The value for UniProt Q9H5V9 and related entries was 0.984 ± 0.067; that for UniProt Q9HBK9 was 0.983 ± 0.05; that for LRRC40 (UniProt Q9H9A6) was 1 ± 0.034.
The value for UniProt Q9H6U6 and related entries was 1.01 ± 0.12; that for LSG1 (UniProt Q9H089) was 1.06 ± 0.046.
CWC22 (UniProt Q9HCG8): the NP40-soluble protein abundance was 0.953 ± 0.12.
Regarding UniProt Q9H2V7 and related entries, the NP40-soluble protein abundance is 1.04 ± 0.096.
The value for UniProt Q9HCJ3 and related entries was 0.932 ± 0.024; that for AZI2 (UniProt Q9H6S1) was 0.935 ± 0.14; that for MIS12 (UniProt Q9H081) was 0.894 ± 0.2.
Next, L2HGDH (UniProt Q9H9P8): 1.1 ± 0.049; UniProt Q9HA38 and related entries: 0.993 ± 0.034; UniProt Q9H9V9 and related entries: 1.03 ± 0.22.
In the case of UniProt Q9H078-2, the NP40-soluble protein abundance amounted to 1.11 ± 0.025.
Next, UniProt Q9H2Y7 and related entries: 1.05 ± 0.17; PDCL3 (UniProt Q9H2J4): 0.958 ± 0.059; RAB33B (UniProt Q9H082): 0.986 ± 0.063.
Next, UniProt Q9H0R5 and related entries: 0.969 ± 0.029.
As for MYH16 (UniProt Q9H6N6), the NP40-soluble protein abundance came out at 0.987 ± 0.036.
Next, RRAGC (UniProt Q9HB90): 1.1 ± 0.07; UniProt Q9HAS0 and related entries: 1.06 ± 0.037; CENPH (UniProt Q9H3R5): 0.888 ± 0.15.
With APOBEC3G (UniProt Q9HC16), the NP40-soluble protein abundance was 0.949 ± 0.14.
Next, UniProt Q9HBE1 and related entries: 1.05 ± 0.13.
